Measurements reported in PubChem BioAssay AID1259425 (University of Nebraska Medical Center, 2018)
Test: 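Find knockdowns that reproduce the gene expression pattern seen when KSR1 is lost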 (primary screen). System: HCT116 human colon cancer cells. Knock-down reagent: siRNA pool against human genes, 50 nM siRNA. Measured: 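mRNA of six signature genes measured together by branched-DNA assay after 50 nM siRNA pool, blank removed, divided by geometric mean of two housekeeping genes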. Direction: BNIP3L mRNA: higher = more BNIP3L transcript after knockdown; NDRG1 mRNA: higher = more NDRG1 transcript after knockdown; BNIP3 mRNA: higher = more BNIP3 transcript after knockdown; ALDOC mRNA: higher = more ALDOC transcript after knockdown.
Here is one part, drawn at random, of about 14,000 reagents. Not all columns of the deposit are shown. The record does not give: the time to read-out.

no.	gene	PubChem SID	BNIP3L mRNA, set 1	NDRG1 mRNA, set 1	BNIP3 mRNA, set 1	ALDOC mRNA, set 1
1	TSPAN8 (tetraspanin 8)	SID363995584	0.14	0.483	0.306	0.0433
2	NOL11 (nucleolar protein 11)	SID363999511	0.242	2.07	0.871	0.0261
3	ZNF229 (zinc finger protein 229)	SID364005435	0.15	0.349	0.295	0.0244
4	SP140 (SP140 nuclear body protein)	SID363997931	0.122	0.599	0.331	0.0182
5	LARGE1 (LARGE xylosyl- and glucuronyltransferase 1)	SID363995696	0.0942	0.18	0.271	0.0217
6	PI4KB (phosphatidylinositol 4-kinase beta)	SID363993819	0.0412	0.217	0.397	0.0117
7	PPP2CB (protein phosphatase 2 catalytic subunit beta)	SID363995160	0.0722	0.129	0.432	0.00129
8	PBX1 (PBX homeobox 1)	SID363993754	0.0327	0.196	0.256	0.0193
9	DNAJB14 (DnaJ heat shock protein family (Hsp40) member B14)	SID364003161	0.142	0.196	0.284	0.0751
10	INSIG2 (insulin induced gene 2)	SID363999900	0.127	0.144	0.279	0.0255
11	NFIC (nuclear factor I C)	SID363996492	0.109	0.0484	0.309	0.00561
12	OR7A5 (olfactory receptor family 7 subfamily A member 5)	SID364000327	0.0263	0.139	0.322	0.0402
13	GABRG2 (gamma-aminobutyric acid type A receptor subunit gamma2)	SID364004986	0.0466	0.138	0.235	0.04
14	FZD10 (frizzled class receptor 10)	SID363997896	0.103	0.141	0.148	0.0387
15	TRIM8 (tripartite motif containing 8)	SID364003487	0.144	0.158	0.178	0.0308
16	ZNF253 (zinc finger protein 253)	SID364001974	0.0865	0.2	0.297	0.0421
17	ANXA6 (annexin A6)	SID363992447	0.0989	0.149	0.445	0.0381
18	CLTCL1 (clathrin heavy chain like 1)	SID363993050	0.118	0.422	0.241	0.021
19	OXA1L (OXA1L mitochondrial inner membrane insertase)	SID363995954	0.238	0.516	0.276	0.035
20	SLC7A5	SID363994584	0.112	0.225	0.216	0.0192
21	CAPG (capping actin protein, gelsolin like)	SID363992968	0.149	0.0826	0.519	0.034
22	OPN5 (opsin 5)	SID364004941	0.134	0.208	0.367	0.0566
23	TNS4 (tensin 4)	SID364004238	0.173	0.193	0.278	0.0901
24	GADD45A (growth arrest and DNA damage inducible alpha)	SID363993137	0.0476	0.103	0.237	0.011
25	LTBP2 (latent transforming growth factor beta binding protein 2)	SID363991759	0.152	0.0636	0.304	0.0168
26	MARK2 (microtubule affinity regulating kinase 2)	SID363995896	0.102	0.28	0.234	0.0142
27	ATG9A (autophagy related 9A)	SID364002737	0.136	0.378	0.338	0.0306
28	NSMF	SID363999559	0.109	0.159	0.4	0.0087
29	LRFN2	SID364005305	0.175	0.261	0.266	0.0698
30	EGFL7 (EGF like domain multiple 7)	SID363999954	0.127	0.281	0.597	0.0246
31	TGFBR3 (transforming growth factor beta receptor 3)	SID363994364	0.0886	0.145	0.315	0.0366
32	DUS4L (dihydrouridine synthase 4 like)	SID364004937	0.0615	0.333	0.116	0.0403
33	NCBP2 (nuclear cap binding protein subunit 2)	SID363998004	0.167	0.203	0.148	0.0395
34	SHANK1 (SH3 and multiple ankyrin repeat domains 1)	SID363999912	0.108	0.179	0.305	0.00584
35	OR2T1 (olfactory receptor family 2 subfamily T member 1)	SID364005250	0.221	0.202	0.352	0.0388
36	ICOS (inducible T cell costimulator)	SID363998041	0.186	0.164	0.243	0.0344
37	CGNL1 (cingulin like 1)	SID364004239	0.0845	0.249	0.286	0.0453
38	NCK2 (NCK adaptor protein 2)	SID363994661	0.0853	0.523	0.203	0.0475
39	PHACTR4 (phosphatase and actin regulator 4)	SID364002649	0.114	0.267	0.267	0.114
40	TSPAN3 (tetraspanin 3)	SID363996610	0.0867	0.155	0.295	0.0406
41	MAGEA5P (MAGE family member A5, pseudogene)	SID364001976	0.13	0.249	0.405	0.0288
42	MS4A3 (membrane spanning 4-domains A3)	SID363996969	0.0624	0.143	0.161	0.0251
43	RLIM (ring finger protein, LIM domain interacting)	SID363999888	0.138	0.146	0.295	0.01
44	GNPAT (glyceronephosphate O-acyltransferase)	SID363998675	0.0566	0.197	0.234	0.0292
45	GJA3 (gap junction protein alpha 3)	SID364002245	0.267	1.41	0.697	0.0763
46	DNAJB1 (DnaJ heat shock protein family (Hsp40) member B1)	SID363996976	0.112	0.0576	0.168	0.0759
47	THYN1 (thymocyte nuclear protein 1)	SID363998631	0.149	0.25	0.334	0.038
48	PPIG (peptidylprolyl isomerase G)	SID363995748	0.0762	0.619	0.513	0.0411
49	SCTR (secretin receptor)	SID363994131	0.286	0.334	0.403	0.0612
50	PPM1L (protein phosphatase, Mg2+/Mn2+ dependent 1L)	SID364004606	0.0552	0.124	0.268	0.0189
51	ESRRA (estrogen related receptor alpha)	SID363995433	0.0867	0.313	0.244	0.0275
52	CCP110 (centriolar coiled-coil protein 110)	SID363999049	0.0626	0.194	0.284	0.0611
53	TEX12 (testis expressed 12)	SID364003565	0.266	0.193	0.687	0.125
54	HCN4	SID363996379	0.1	0.371	0.405	0.0326
55	UAP1 (UDP-N-acetylglucosamine pyrophosphorylase 1)	SID363994256	0.0843	0.112	0.258	0.0454
56	QSER1 (glutamine and serine rich 1)	SID364003047	0.0543	0.257	0.291	0.012
57	DOCK7 (dedicator of cytokinesis 7)	SID364004375	0.0858	0.33	0.214	0.0419
58	DNAJC5 (DnaJ heat shock protein family (Hsp40) member C5)	SID364003323	0.0975	0.204	0.287	0.0314
59	BZW1 (basic leucine zipper and W2 domains 1)	SID363999023	0.106	0.189	0.23	0.0775
60	GON7 (GON7 subunit of KEOPS complex)	SID364004007	0.089	0.171	0.195	0.016
61	USP10 (ubiquitin specific peptidase 10)	SID363996081	0.0445	0.138	0.249	0.0155
62	UBA5 (ubiquitin like modifier activating enzyme 5)	SID364003085	0.106	0.0507	0.15	0.0367
63	ZNF140 (zinc finger protein 140)	SID363994541	0.165	0.507	0.308	0.0287

No new results follow: 3 of the entries above.
no.	gene	PubChem SID	BNIP3L mRNA, set 1	NDRG1 mRNA, set 1	BNIP3 mRNA, set 1	ALDOC mRNA, set 1
39	PHACTR4 (phosphatase and actin regulator 4)	SID364002649	0.114	0.267	0.267	0.114
40	TSPAN3 (tetraspanin 3)	SID363996610	0.0867	0.155	0.295	0.0406
41	MAGEA5P (MAGE family member A5, pseudogene)	SID364001976	0.13	0.249	0.405	0.0288
